In patent US20240287164A1, “ANTIBODIES SPECIFIC TO NELL2 AND METHODS OF USE” (BOARD OF REGENTS, THE UNIVERSITY OF TEXAS SYSTEM, priority 2021, published 2024):
No constants are given. Whether binding was seen depends on the method and setting. Some binding calls cover weakened binding; strength is not graded here.

By UniProt entry, the sequences of proteins in these tests, tags left out. Residues count along the entry.
UniProt Q99435, residues 22-816: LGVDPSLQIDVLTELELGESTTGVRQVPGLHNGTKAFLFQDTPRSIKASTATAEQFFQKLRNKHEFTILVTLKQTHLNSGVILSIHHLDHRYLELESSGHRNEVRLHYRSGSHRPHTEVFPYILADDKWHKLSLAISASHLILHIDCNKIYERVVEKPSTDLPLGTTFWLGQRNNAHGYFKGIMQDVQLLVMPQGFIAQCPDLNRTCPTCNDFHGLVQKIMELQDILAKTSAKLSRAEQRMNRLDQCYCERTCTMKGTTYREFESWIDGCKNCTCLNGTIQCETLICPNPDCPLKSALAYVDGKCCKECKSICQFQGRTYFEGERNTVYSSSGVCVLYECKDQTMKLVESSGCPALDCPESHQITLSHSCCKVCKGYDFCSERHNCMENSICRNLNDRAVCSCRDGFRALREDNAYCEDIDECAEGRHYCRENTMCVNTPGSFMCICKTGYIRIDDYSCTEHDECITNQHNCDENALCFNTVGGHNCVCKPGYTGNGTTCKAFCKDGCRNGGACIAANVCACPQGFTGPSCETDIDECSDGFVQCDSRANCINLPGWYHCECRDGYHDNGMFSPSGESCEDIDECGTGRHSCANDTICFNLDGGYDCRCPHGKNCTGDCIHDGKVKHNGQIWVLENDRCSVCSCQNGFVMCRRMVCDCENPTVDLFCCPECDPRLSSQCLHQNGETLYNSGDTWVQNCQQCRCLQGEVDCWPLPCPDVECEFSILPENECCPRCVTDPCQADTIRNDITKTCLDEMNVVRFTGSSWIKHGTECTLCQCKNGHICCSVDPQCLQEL

Assays:
[1] = molecular target: T1, Robo3 (endogenous, on A-673 Ewing sarcoma cells) (human) (UniProt Q96MS0); assay: ligand-binding assay: NELL2-FLAG incubated with A-673 cells for 0, 2, 4, 6, 8 or 24 hours, cells washed, whole cell lysate immunoblotted
T1 sequence (looked up): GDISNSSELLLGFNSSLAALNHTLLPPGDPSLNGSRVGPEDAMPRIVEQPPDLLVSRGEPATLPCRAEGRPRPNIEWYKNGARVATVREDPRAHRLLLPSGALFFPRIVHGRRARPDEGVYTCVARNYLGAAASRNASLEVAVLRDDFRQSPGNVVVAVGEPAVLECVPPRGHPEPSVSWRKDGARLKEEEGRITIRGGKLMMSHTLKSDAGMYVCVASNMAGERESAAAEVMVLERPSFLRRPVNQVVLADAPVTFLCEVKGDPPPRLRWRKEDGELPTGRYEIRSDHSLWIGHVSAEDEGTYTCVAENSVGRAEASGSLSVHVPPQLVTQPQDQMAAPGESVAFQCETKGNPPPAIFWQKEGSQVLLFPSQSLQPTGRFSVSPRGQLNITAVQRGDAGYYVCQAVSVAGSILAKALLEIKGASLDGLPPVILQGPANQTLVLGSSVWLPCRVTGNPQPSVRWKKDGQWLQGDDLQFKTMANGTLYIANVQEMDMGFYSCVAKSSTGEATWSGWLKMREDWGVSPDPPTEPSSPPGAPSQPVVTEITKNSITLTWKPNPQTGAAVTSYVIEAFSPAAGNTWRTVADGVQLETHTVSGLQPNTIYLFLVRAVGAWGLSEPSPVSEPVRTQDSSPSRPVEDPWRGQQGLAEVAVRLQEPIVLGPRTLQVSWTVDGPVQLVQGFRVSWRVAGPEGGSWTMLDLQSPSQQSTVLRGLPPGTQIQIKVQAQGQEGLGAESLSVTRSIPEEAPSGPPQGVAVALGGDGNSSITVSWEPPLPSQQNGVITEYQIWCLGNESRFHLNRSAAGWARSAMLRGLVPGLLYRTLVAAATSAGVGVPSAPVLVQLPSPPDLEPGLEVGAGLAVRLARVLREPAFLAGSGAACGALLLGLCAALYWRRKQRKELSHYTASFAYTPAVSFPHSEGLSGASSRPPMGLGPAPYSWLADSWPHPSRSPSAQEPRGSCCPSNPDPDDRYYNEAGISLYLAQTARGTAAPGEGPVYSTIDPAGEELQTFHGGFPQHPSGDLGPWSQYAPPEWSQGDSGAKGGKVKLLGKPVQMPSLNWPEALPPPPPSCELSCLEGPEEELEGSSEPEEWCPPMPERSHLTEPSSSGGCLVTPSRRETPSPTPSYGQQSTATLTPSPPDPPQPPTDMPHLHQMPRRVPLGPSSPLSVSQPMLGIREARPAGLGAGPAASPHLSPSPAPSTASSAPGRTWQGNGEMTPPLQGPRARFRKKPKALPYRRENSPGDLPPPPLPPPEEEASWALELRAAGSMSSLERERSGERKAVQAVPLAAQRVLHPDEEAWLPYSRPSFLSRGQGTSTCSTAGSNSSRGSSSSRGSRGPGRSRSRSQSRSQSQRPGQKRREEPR

[2] = molecular target: T1, Robo3 (endogenous, on A-673 Ewing sarcoma cells) (human); assay: ligand-binding assay on A-673 cells, anti-FLAG immunoblot of whole cell lysate
[3] = molecular target: T1, Robo3 (endogenous, on A-673 Ewing sarcoma cells) (human); assay: ligand-binding assay on A-673 cells (FIG. 2B legend)

Measured: binding

C-terminally FLAG-tagged NELL2 (from UniProt Q99435 22-816) (ligand)
binds: all assays above
